# Measurements: the supplement of paper PMC12067093, “Discovery and optimisation of a covalent ligand for TRIM25 and its application to targeted protein ubiquitination” (Chemical Science, 2025)
# The chains behind the UniProt entries cited, without tags or fusion partners.
# UniProt Q00987, whole entry, looked up: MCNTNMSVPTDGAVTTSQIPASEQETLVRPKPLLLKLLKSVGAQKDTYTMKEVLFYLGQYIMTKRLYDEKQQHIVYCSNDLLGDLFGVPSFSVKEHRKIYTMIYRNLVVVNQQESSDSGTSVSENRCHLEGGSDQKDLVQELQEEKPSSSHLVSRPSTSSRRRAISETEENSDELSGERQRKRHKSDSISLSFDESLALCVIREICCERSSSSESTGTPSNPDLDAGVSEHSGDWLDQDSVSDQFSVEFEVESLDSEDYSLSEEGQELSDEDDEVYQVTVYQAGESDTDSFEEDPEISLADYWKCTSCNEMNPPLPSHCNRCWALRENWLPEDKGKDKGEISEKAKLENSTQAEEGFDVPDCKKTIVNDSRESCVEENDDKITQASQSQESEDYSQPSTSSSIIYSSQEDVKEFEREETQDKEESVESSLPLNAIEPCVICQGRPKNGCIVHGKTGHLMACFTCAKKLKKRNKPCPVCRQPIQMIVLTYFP
# This is one part of the list.
# Biological target: MDM2_Q00987_77_QQHIVYCSNDLLGDLFGVPSFSVK (UniProt Q00987)
# Experiment: probe-labelled cysteine peptide fold change vs DMSO (competition) (log2 fold change); higher = less target engagement (more negative = stronger competition)
# Conditions: THP-1, incubation time: 4 h
# 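Also: competitive profiling in live THP-1 cells: cysteine peptides tagged with an iodoacetamide desthiobiotin (IA-DTB) probe, intensity after compound treatment relative to DMSO-treated cells.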
structure (smiles),measurement,setting,value
Cc1cc(C(=O)N2CCCN(C(=O)CCl)CC2)ccc1-c1ccccc1 [compound 10],probe-labelled cysteine peptide fold change,10 µM,0.4
same,probe-labelled cysteine peptide fold change,50 µM,0.0775
